Test results reported in doi:10.1101/2021.10.21.465349.
Results are given in words; binding and its absence hold for the method and conditions named. In cells and extracts the contact can be indirect. Some entries that bind do so weakly or less than the wild type.

Chains of the proteins cited; added tags and fusions are not shown.
UniProt Q6XZL8: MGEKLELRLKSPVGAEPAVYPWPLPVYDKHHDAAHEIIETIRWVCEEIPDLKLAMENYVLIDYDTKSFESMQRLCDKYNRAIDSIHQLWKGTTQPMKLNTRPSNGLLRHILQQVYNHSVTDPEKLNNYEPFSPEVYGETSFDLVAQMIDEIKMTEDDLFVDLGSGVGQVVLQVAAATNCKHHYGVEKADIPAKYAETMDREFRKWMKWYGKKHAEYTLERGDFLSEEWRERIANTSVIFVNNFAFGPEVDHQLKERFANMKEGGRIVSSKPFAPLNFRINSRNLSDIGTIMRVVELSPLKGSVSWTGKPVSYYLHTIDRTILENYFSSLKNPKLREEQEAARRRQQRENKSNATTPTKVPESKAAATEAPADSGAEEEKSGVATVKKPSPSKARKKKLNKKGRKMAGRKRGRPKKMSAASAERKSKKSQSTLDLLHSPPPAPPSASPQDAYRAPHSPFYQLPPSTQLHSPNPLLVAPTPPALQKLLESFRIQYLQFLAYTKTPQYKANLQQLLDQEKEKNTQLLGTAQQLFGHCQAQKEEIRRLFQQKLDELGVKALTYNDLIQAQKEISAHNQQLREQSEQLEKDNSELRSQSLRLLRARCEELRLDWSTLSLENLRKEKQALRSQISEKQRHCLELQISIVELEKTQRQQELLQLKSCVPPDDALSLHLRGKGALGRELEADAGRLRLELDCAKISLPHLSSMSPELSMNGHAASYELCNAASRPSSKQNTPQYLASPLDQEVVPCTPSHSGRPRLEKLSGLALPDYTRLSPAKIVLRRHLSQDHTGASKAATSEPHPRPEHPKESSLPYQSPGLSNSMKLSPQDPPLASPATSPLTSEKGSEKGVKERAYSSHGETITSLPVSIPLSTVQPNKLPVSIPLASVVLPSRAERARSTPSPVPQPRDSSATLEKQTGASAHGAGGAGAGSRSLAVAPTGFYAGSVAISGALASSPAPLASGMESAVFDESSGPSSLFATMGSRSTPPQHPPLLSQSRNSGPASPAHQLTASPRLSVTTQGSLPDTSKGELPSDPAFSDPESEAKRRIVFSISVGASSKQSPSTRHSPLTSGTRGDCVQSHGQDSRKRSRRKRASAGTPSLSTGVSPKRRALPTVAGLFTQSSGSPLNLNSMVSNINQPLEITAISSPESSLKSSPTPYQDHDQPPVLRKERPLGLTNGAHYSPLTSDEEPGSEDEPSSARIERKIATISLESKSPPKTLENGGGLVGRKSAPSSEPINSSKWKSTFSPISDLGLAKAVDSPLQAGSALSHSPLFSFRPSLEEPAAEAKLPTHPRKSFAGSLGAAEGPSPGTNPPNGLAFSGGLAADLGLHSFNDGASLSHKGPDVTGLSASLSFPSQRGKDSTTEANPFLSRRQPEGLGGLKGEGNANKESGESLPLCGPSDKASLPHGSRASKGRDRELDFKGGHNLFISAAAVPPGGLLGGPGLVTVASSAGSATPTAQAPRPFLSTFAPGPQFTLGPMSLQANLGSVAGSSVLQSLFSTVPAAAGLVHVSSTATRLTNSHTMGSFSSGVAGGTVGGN
UniProt Q6PDQ2: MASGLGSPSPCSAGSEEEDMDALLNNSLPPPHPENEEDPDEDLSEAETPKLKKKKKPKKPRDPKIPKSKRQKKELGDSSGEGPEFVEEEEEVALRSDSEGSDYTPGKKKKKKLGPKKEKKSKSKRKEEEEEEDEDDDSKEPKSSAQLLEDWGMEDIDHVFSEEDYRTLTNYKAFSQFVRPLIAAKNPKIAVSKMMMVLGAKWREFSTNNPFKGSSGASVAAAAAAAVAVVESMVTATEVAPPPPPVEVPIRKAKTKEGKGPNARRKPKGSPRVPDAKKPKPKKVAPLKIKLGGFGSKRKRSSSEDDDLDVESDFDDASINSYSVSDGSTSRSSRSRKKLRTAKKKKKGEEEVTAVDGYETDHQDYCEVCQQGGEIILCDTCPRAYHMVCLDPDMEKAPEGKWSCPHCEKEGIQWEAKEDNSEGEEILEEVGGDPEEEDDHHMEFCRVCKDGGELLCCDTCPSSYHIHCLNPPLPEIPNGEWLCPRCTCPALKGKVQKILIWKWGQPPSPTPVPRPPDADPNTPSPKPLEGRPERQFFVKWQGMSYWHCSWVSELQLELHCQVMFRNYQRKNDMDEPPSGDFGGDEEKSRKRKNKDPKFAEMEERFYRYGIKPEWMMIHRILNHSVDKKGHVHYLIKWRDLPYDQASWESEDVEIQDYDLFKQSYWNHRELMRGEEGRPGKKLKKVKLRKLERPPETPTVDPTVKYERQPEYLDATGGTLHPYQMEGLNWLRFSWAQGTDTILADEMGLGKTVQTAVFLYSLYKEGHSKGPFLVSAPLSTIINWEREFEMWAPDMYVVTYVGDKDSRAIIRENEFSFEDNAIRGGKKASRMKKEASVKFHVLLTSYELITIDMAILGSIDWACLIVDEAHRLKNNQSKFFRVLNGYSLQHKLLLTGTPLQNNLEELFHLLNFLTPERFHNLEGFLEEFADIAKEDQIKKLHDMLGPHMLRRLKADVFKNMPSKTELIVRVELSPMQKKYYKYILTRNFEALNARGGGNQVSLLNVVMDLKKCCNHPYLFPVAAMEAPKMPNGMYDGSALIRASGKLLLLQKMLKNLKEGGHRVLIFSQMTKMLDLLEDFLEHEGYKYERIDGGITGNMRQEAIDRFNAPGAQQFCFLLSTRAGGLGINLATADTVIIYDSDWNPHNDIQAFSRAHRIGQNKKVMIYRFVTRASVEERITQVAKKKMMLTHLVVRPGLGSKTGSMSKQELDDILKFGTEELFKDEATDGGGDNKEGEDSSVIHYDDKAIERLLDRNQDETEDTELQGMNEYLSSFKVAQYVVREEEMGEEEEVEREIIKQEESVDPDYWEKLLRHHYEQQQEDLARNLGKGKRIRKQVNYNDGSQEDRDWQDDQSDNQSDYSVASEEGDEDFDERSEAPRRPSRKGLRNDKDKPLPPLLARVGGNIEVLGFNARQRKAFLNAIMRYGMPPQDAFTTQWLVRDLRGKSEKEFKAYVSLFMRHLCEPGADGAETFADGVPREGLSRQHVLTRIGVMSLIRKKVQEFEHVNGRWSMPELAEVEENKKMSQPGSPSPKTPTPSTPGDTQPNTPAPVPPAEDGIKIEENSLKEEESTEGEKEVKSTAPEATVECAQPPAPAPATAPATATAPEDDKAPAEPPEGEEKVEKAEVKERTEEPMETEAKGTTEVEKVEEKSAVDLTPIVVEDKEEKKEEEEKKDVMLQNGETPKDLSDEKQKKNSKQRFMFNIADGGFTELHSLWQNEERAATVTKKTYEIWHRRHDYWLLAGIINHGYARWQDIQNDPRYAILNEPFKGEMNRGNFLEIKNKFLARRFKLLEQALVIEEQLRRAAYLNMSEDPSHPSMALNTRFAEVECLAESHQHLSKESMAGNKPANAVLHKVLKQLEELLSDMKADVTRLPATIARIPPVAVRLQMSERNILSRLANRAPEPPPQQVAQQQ
UniProt Q91ZW3: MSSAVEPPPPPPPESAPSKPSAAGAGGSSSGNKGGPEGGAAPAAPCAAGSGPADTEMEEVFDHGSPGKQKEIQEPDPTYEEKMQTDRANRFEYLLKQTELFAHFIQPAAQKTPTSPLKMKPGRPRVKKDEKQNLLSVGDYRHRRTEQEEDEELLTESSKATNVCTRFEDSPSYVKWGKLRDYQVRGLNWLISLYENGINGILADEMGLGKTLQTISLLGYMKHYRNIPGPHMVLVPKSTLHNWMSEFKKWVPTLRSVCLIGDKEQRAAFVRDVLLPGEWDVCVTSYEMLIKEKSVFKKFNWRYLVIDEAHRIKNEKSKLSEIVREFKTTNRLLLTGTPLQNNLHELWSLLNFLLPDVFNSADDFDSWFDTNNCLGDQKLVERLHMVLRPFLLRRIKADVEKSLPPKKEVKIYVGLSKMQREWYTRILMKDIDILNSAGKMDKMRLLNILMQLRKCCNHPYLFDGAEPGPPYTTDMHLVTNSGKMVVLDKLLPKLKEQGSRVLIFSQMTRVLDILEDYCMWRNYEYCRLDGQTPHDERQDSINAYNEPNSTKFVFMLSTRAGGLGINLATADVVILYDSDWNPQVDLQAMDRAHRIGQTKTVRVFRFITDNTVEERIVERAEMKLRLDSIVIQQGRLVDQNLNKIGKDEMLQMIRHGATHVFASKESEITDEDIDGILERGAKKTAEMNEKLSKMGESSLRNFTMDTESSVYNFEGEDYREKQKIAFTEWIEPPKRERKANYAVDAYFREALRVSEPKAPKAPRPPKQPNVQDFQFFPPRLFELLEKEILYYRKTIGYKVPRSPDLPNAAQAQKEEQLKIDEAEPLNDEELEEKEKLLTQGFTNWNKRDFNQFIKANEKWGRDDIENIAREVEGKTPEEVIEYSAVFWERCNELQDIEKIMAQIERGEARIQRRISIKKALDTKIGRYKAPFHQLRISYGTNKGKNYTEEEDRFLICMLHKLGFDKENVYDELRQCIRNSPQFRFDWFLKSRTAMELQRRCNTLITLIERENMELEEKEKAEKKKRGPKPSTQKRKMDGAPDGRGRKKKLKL

Target: endogenous DOT1L (mouse (endogenous in V6.5 mESCs)) (UniProt Q6XZL8)
Assay: co-IP

| binding | Molecule |
| --- | --- |
| binds | CHD4 (from UniProt Q6PDQ2 1-1915) (enzyme) |
| binds | SMARCA5 (SNF2H) (from UniProt Q91ZW3 1-1051) (enzyme) |
| binds | HMGA1 (High Mobility Group protein A1) (protein, UniProt P17095 1-107) MSESGSKSSQPLASKQEKDGTEKRGRGRPRKQPPVSPGTALVGSQKEPSEVPTPKRPRGRPKGSKNKGAAKTRKVTTAPGRKPRGRPKKLEKEEEEGISQESSEEEQ |
